These results are taken from PMC4270795.

Sequences of proteins named here, by UniProt entry; tags and fusion partners are left off.
UniProt O43524: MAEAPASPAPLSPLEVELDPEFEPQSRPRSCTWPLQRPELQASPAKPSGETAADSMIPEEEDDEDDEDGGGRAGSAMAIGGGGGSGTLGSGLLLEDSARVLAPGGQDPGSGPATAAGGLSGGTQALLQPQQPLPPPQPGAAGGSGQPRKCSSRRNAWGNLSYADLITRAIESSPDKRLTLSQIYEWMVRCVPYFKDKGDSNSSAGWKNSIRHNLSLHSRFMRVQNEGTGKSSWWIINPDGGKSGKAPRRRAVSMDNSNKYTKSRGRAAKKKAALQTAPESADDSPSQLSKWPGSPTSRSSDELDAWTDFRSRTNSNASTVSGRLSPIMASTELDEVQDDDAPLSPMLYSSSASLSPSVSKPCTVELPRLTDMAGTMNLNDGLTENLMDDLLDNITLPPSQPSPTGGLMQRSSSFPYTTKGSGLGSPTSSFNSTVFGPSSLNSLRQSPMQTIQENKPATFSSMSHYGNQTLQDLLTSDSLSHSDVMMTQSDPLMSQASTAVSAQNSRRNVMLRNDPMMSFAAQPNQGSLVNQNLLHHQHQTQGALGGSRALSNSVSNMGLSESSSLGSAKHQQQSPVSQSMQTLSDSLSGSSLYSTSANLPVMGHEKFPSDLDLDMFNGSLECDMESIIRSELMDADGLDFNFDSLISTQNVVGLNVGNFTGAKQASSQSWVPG

The target in this test is HTLV-1 Tax oncoprotein (HTLV-1) (UniProt P03409). Description: co-IP; anti-Tax immunoprecipitation (clone 1A3; Tax blotted with clone LT4) from CHAPS-buffer lysates with protease inhibitors, 500 ug of proteins; primary CD4+ T cells transduced 48 h with LVPTax; isotype IgG1 as negative control; n = 4.

Results are given in words; binding and its absence hold for the method and conditions named. Binding seen in cells or lysates may run through a third protein.

As to “FOXO3a transcription factor (from UniProt O43524 1-673)”, the binding result is “no binding”.
